Results deposited as PubChem BioAssay AID743121 (NCATS, 2013).

Test: 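Partners whose loss is lethal together with topoisomerase I blockade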 (primary screen)
Cell system: MDA-MB-231 cells, a human breast cancer line
Reagent: single siRNA against human genes, 20 nM siRNA (0.8 pmol per well)
Duration: 120 h (drug added 48 h after transfection, read 72 h later)
Conditions: camptothecin 20 nM (about EC30) for 72 h; vehicle 0.1% DMSO in parallel plates
Measurement: 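Cell viability by ATP luminescence (CellTiter-Glo) as % of non-targeting siRNA wells, and the log2 ratio of viability without drug over viability with camptothecin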
Reading the numbers: log2 vehicle/camptothecin viability: higher = stronger sensitisation to camptothecin
Rule for the call: 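Active genes have an RSA gene-level p-value below 0.001, computed from the ratios of their separate siRNAs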
This is an unselected part of about 26,000 deposited reagents. Over the whole deposit, 167 (0.63%) got an active call. 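Calls are per gene from RSA p-values that are not deposited; an individual active-marked siRNA can sensitise only weakly.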 Reagents against one gene are numbered here. Further read-outs or replicates are left out here. No sequences are given here.

| target | siRNA no. | log2 vehicle/camptothecin viability | Outcome |
| --- | --- | --- | --- |
| HMGA1 (high mobility group AT-hook 1) | 1 | 0.00842 | inactive |
| HMGA1 (high mobility group AT-hook 1) | 2 | -0.243 | inactive |
| HMGA1 (high mobility group AT-hook 1) | 3 | -0.197 | inactive |
| HMGA1 (high mobility group AT-hook 1) | 4 | -0.337 | inactive |
| GFRA3 (GDNF family receptor alpha 3) | 1 | -0.397 | inactive |
| GFRA3 (GDNF family receptor alpha 3) | 2 | -0.16 | inactive |
| GFRA3 (GDNF family receptor alpha 3) | 3 | 0.19 | inactive |
| CASP8AP2 (caspase 8 associated protein 2) | 1 | -0.37 | inactive |
| CASP8AP2 (caspase 8 associated protein 2) | 2 | -0.838 | inactive |
| CASP8AP2 (caspase 8 associated protein 2) | 3 | -0.0238 | inactive |
| TRRAP (transformation/transcription domain associated protein) | 1 | -0.405 | inactive |
| TRRAP (transformation/transcription domain associated protein) | 2 | -0.227 | inactive |
| TRRAP (transformation/transcription domain associated protein) | 3 | -0.338 | inactive |
| TRRAP (transformation/transcription domain associated protein) | 4 | -0.216 | inactive |
| TRRAP (transformation/transcription domain associated protein) | 5 | -0.0306 | inactive |
| IRS1 (insulin receptor substrate 1) | 1 | -0.236 | inactive |
| IRS1 (insulin receptor substrate 1) | 2 | -0.562 | inactive |
| IRS1 (insulin receptor substrate 1) | 3 | -0.236 | inactive |
| PMPCB (peptidase, mitochondrial processing subunit beta) | 1 | -0.0621 | inactive |
| PMPCB (peptidase, mitochondrial processing subunit beta) | 2 | -0.0808 | inactive |
| PMPCB (peptidase, mitochondrial processing subunit beta) | 3 | -0.471 | inactive |
| TAAR9 (trace amine associated receptor 9) | 1 | 0.229 | inactive |
| TAAR9 (trace amine associated receptor 9) | 2 | -0.453 | inactive |
| TAAR9 (trace amine associated receptor 9) | 3 | -0.0442 | inactive |
| TAAR9 (trace amine associated receptor 9) | 4 | 0.461 | inactive |
| AQP7 (aquaporin 7) | 1 | 0.101 | inactive |
| AQP7 (aquaporin 7) | 2 | -0.0927 | inactive |
| AQP7 (aquaporin 7) | 3 | -0.106 | inactive |
| AQP7 (aquaporin 7) | 4 | -0.0911 | inactive |

A stretch from the list above, for reference:
| target | siRNA no. | log2 vehicle/camptothecin viability | Outcome |
| --- | --- | --- | --- |
| TRRAP (transformation/transcription domain associated protein) | 1 | -0.405 | inactive |
| TRRAP (transformation/transcription domain associated protein) | 2 | -0.227 | inactive |
